PubChem BioAssay AID652259 – Drosophila RNAi Screening Center – 2013

- Purpose: 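Knock-downs that push a Wingless-driven reporter up or down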 (primary screen)
- Cell system: Drosophila clone 8 imaginal disc epithelial cells
- Reagent: long dsRNA against Drosophila genes
- Treatment: pathway stimulated by co-transfected Wingless expression plasmid
- Measurement: 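Firefly luciferase from a tcf-site Wingless reporter, measured alongside co-transfected Renilla luciferase that tracks transfection; pathway stimulated by a Wingless plasmid; the firefly-to-Renilla ratio is not deposited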
- Scale: firefly reporter light: higher = more Wg reporter light, before normalisation; Renilla control light: higher = more transfected or surviving cells
- Rule for the call: 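Strong candidates differ from their plate mean by at least two out of four per-plate statistical tests; weak candidates meet just one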
- Calls: active = candidate regulator (raises or lowers reporter); inactive = not a candidate
The deposit covers about 22,000 reagents; shown is an unselected part of those with a known target gene and a result. Over the whole deposit, 233 (1.1%) are marked active. 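Light values are raw, unnormalised plate reads; the ratio scores behind the reporter calls were not deposited.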 Reagents against one gene are numbered here. A plus sign joins genes that one reagent is predicted to hit. Not stated in the record: the amount of reagent, the time to read-out, the dose of the treatment.

no.	target	reagent no.	reporter change call, replicate 1	firefly reporter light, replicate 1	firefly reporter light, replicate 2	Renilla control light, replicate 1	Renilla control light, replicate 2	outcome
1	ENGase	1		2746		1223		inactive
2	ENGase	2		13425		6912		inactive
3	Unc50	1		21328		4576		inactive
4	sprt	1		14437		3834		inactive
5	Wdr82	1		23229		11297		inactive
6	Wdr82	2		3.40e5	3.69e5	1.54e5	1.42e5	inactive
7	Rpt4R	1		9477		3456		inactive
8	qin	1		14973		3533		inactive
9	qin	2		17883		3916		inactive
10	CG16700	1		18357		7895		inactive
11	4E-T	1		2553	6000	1402	1937	inactive
12	4E-T	2		16935		13009		inactive
13	SdhB	1		17508	7.74e5	5090	3.68e5	inactive
14	SdhB	2		3.85e5	3.72e5	1.34e5	1.01e5	inactive
15	SMC3	1		20994		6507		inactive
16	CG6138	1		3629	6640	929	3356	inactive
17	squ	1		21797		9848		inactive
18	CG11249	1		10288		5146		inactive
19	Septin4	1		2411	8618	794	1728	inactive
20	Cen	1		11993		2359		inactive
21	und	1		8296		3433		inactive
22	Nepl21	1		2269	3589	1976	855	inactive
23	CG7069	1		1671	6699	946	1961	inactive
24	CG6333	1		6836		3152		inactive
25	CG10588	1		13830		4976		inactive
26	Acp26Ab	1		4337	8233	1381	3149	inactive
27	Psc	1		5925		1732		inactive
28	CG14314	1		10220		1232		inactive
29	CG13801	1		4256		2693		inactive
30	tum	1		6560		2106		inactive
31	Nadsyn	1		2379	5916	903	2184	inactive
32	gogo	1		18759		4645		inactive
33	gogo	2		17264		5577		inactive
34	CG34347	1		3019		880		inactive
35	CG34347	2		9675		2292		inactive
36	CG34347	3		9493		1879		inactive
37	CG34347	4		2456		298		inactive
38	CG7182	1		2364		1367		inactive
39	Vajk3	1		9090		3049		inactive
40	Hug	1		15339		4061		inactive
41	RhoGEF64C	1		6182		2187		inactive
42	RhoGEF64C	2		977	4928	792	2556	inactive
43	Idgf3	1		5052		2156		inactive
44	CG42586 + CG31775	1		23213	5.28e5	6892	45123	inactive
45	CG6356	1		14928		14880		inactive
46	fit	1		43348		9232		inactive
47	CG14355	1		7037		3955		inactive
48	PrBP	1		1830	4489	1081	2866	inactive
49	CG33462	1		4.27e5	5.49e5	1.79e5	1.02e5	inactive
50	CG13724	1		11770		3456		inactive
51	bab1	1	Wg reporter activity raised	7026		4579		active
52	bab1	2		6409		3527		inactive
53	bab1	3		5.60e5	5.68e5	1.94e5	2.50e5	inactive
54	WASp	1		10624		3652		inactive
55	eIF2Balpha	1		2224	7323	1043	1936	inactive
56	CG31805	1		22688		10012		inactive
57	Cyt-c-p	1		2203	8116	1356	3168	inactive
58	Arpc4	1		2800	7073	521	1744	inactive
59	CG43121	1		4176		1812		inactive
60	CG14423	1		13736		8877		inactive
61	CG14219	1		18533		7353		inactive
62	path	1		7552		3184		inactive
63	CG15382	1		2563	3580	885	1648	inactive
64	CG8306	1		10040		3746		inactive
65	Obp44a	1		3212	6884	714	2968	inactive
66	Synj	1		9392		2756		inactive
67	CG17440	1		28872		8978		inactive
68	REG	1		13382		7216		inactive
69	Vps33B	1		3687	4050	1836	753	inactive
70	CG14983	1		5075		2363		inactive
71	CG32376	1		4.46e5	3.39e5	1.82e5	47338	inactive
72	asRNA:CR43469 + Balat	1		7105		2784		inactive
73	Usp7	1		4450		1808		inactive
74	Usp7	2		24811		11538		inactive

Active calls, of those listed so far:
target	reagent no.	reporter change call, replicate 1	firefly reporter light, replicate 1	firefly reporter light, replicate 2	Renilla control light, replicate 1	Renilla control light, replicate 2	outcome
bab1	1	Wg reporter activity raised	7026		4579		active
